Laboratory results taken from the supplement of paper PMC5770031.
This is one part of the list. Repeats in this data set agree poorly, so a single value says little.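 ATM8/balancer (normal ATM) heterozygous flies were crossed on treated food; parents laid eggs 5–6 days, offspring developed ~12 days, so parents and larvae ingested compound. Readout: fraction of emerged adults homozygous for ATM8 versus 2% DMSO controls. Compounds were neutral at 10–20% homozygotes, harmful below 10%, helpful above 20%.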

test system: Drosophila melanogaster ATM8 (temperature-sensitive ATM allele); assay: fraction of eclosed F1 progeny that are homozygous ATM8 (rescue of developmental lethality); higher = more rescue of ATM8 developmental lethality; extreme values may be limits of the assay; conditions: compound concentration applied to food 0.2 mM; 21 °C

| SMILES | fraction of eclosed F1 progeny that are homozygous ATM8 |
| --- | --- |
| OCCOCCN1CCN(C(c2ccccc2)c2ccc(Cl)cc2)CC1 (centres undefined) | 0.236 |
| Cc1ccccc1N1C(=O)c2cc(S(N)(=O)=O)c(Cl)cc2NC1C (centres undefined) | 0.107 |
| Cc1cc(-n2c(=O)[nH]c(=O)n(C)c2=O)ccc1Oc1ccc(SC(F)(F)F)cc1 | 0.0286 |
| CC(C)COC(=O)c1ccc(N)cc1 | 0.103 |
| COc1ccc(C(=O)c2ccc(O)cc2)c(O)c1O | 0.186 |
| COc1ccc(-c2coc3c(OC)c(OC)cc(O)c3c2=O)cc1 | 0.151 |
| O=C(NC(O)C(Cl)(Cl)Cl)NC(O)C(Cl)(Cl)Cl (centres undefined) | 0.0625 |
| CC(Oc1c(Cl)cccc1Cl)C1=NCCN1 (centres undefined) | 0 |
| CC1=C(CC(=O)O)c2cc(F)ccc2/C1=C\c1ccc([S+](C)[O-])cc1 (centres undefined) | 0.133 |
| CC(=O)NC1CCSC1=O (centres undefined) | 0.273 |
| CCOc1ccc(C(=O)c2ccc(O)c(O)c2O)cc1 | 0.0727 |
| C[C@]12CC[C@@H]3c4ccc(O)cc4CC[C@H]3[C@@H]1C[C@@H](O)[C@@H]2O | 0.0222 |
| Cc1cccc2c3c(ccc12)C1=C(C(=O)C3=O)[C@@H](C)CO1 | 0.228 |
| Cc1noc(NS(=O)(=O)c2ccc(N)cc2)c1C | 0.233 |
| CCc1cccc2c3c([nH]c12)C(CC)(CC(=O)O)OCC3 (centres undefined) | 0.152 |
| CCCCC(=O)O[C@]1(C(=O)CO)CC[C@H]2[C@@H]3CCC4=CC(=O)CC[C@]4(C)[C@H]3[C@@H](O)C[C@@]21C | 0.0323 |
| CC(=O)N[C@@H](Cc1ccccc1)C(=O)O | 0.13 |
| CO/N=C(\C(=O)N[C@@H]1C(=O)N2C(C(=O)O)=C(C[N+]3(C)CCCC3)CS[C@H]12)c1csc(N)n1 | 0.154 |
| CCOC(=O)[C@H](CCc1ccccc1)N[C@@H](C)C(=O)N1CCC[C@H]1C(=O)O | 0.143 |
| CC(=O)Oc1ccc2c(c1)CC[C@@H]1[C@@H]2CC[C@@]2(C)[C@H]1C[C@@H](OC(C)=O)[C@@H]2OC(C)=O | 0 |
| Cn1nnnc1SCC1=C(C(=O)O)N2C(=O)[C@@H](NC(=O)[C@H](OC=O)c3ccccc3)[C@H]2SC1 | 0.171 |
| COc1cc(O)c(C)c(O)c1 | 0.115 |
| OCC(O)C(O)C(O)C(O)C(O)CO (centres undefined) | 0.0349 |
| O=C(O)Cc1cnc[nH]1 | 0.0789 |
| COc1cc([C@@H]2c3cc4c(cc3[C@H](OC(C)=O)[C@H]3COC(=O)[C@@H]23)OCO4)cc(OC)c1OC | 0.128 |
| C[C@]12CC[C@@H]3c4ccc(O)cc4CC[C@H]3[C@@H]1C[C@H](O)[C@@H]2O | 0.197 |

Some of the entries above, set out differently.
SMILES	fraction of eclosed F1 progeny that are homozygous ATM8
CC(=O)N[C@@H](Cc1ccccc1)C(=O)O	0.13
CO/N=C(\C(=O)N[C@@H]1C(=O)N2C(C(=O)O)=C(C[N+]3(C)CCCC3)CS[C@H]12)c1csc(N)n1	0.154

Following part.

| SMILES | fraction of eclosed F1 progeny that are homozygous ATM8 |
| --- | --- |
| CCC1NC(=O)c2cc(S(N)(=O)=O)c(Cl)cc2N1 (centres undefined) | 0.113 |
| CNCC(O)c1ccc(O)cc1 (centres undefined) | 0.186 |
| CC(O)(P(=O)(O)O)P(=O)(O)O | 0.341 |
| CCc1ccc2c(O)c3c(cc2c1C(=O)OC)C(=O)c1c(O)ccc(O)c1C3=O | 0.116 |
| O=C(O)COCCN1CCN([C@H](c2ccccc2)c2ccc(Cl)cc2)CC1 | 0.3 |
| O=C1[C@H](CC[C@H](O)c2ccc(F)cc2)[C@@H](c2ccc(O)cc2)N1c1ccc(F)cc1 | 0.326 |
| CC(=O)O[C@H]1C[C@@H](OC(C)=O)C(C)(C)[C@@H]2C[C@@H](OC(C)=O)[C@@]3(C)C4=CC(=O)O[C@@H](c5ccoc5)[C@]4(C)CC[C@@H]3[C@@]12C | 0.133 |
| O=S(=O)(O)c1cc(I)c(O)c2ncccc12 | 0.197 |
| CN1CCOC(c2ccccc2)c2ccccc2C1 (centres undefined) | 0.116 |
| N=C(N)NCCCCN | 0.208 |
| CN1CCC(=C2c3ccccc3CCc3sccc32)CC1 | 0.0984 |
| COc1cc2occ(-c3ccccc3)c(=O)c2c(OC)c1C | 0.0323 |
| CN[C@@H]1[C@@H](O)[C@@H](O[C@@H]2[C@@H](O)[C@H](O[C@H]3O[C@H]([C@@H](C)O)[C@@H](O)[C@H](O)[C@H]3N)[C@@H](N)C[C@H]2N)OC[C@]1(C)O | 0.119 |
| CC1(C)CC[C@]2(C(=O)O)CC[C@]3(C)C(=CCC4[C@@]5(C)CC[C@@H](O)C(C)(C)C5CC[C@]43C)C2C1 (some centres undefined) | 0.122 |
| CCN(CC)CCOc1ccc(C(=C(Cl)c2ccccc2)c2ccccc2)cc1 | 0.075 |
| CCCCCOC(=O)Nc1nc(=O)n([C@@H]2O[C@H](C)[C@@H](O)[C@H]2O)cc1F | 0.107 |
| CCCCNc1ccc(C(=O)OCCN(C)C)cc1 | 0.15 |
| C[C@@H]1CC[C@@]23CCC4(C)[C@@](C=CC5[C@@]6(C)CCC(=O)C(C)(C)C6CC[C@]54C)(OC2=O)C3[C@H]1C (some centres undefined) | 0 |
| NC(=O)NC1NC(=O)NC1=O (centres undefined) | 0.14 |
| CC/C=C\CC1=C(C)CCC1=O | 0.111 |
| CN(C)CCOC(c1ccc(Cl)cc1)c1ccccn1 (centres undefined) | 0.0303 |
| O=C1CCc2ccc(OCCCCN3CCN(c4cccc(Cl)c4Cl)CC3)cc2N1 | 0 |
| COc1c2ccoc2cc2oc(=O)ccc12 | 0.105 |
| Cc1ccccc1C(OCCN(C)C)c1ccccc1 (centres undefined) | 0.439 |
| O=C1C(O)=C([C@H]2CC[C@H](c3ccc(Cl)cc3)CC2)C(=O)c2ccccc21 | 0.235 |
| CC(C)C[C@H]1C(=O)N2CCC[C@H]2[C@]2(O)O[C@](NC(=O)[C@@H]3C=C4c5cccc6[nH]c(Br)c(c56)C[C@H]4N(C)C3)(C(C)C)C(=O)N12 | 0.122 |

3 entries out of the list, sorted by count of non-hydrogen atoms, falling.

| SMILES | fraction of eclosed F1 progeny that are homozygous ATM8 |
| --- | --- |
| CN1CCC(=C2c3ccccc3CCc3sccc32)CC1 | 0.0984 |
| Cc1ccccc1C(OCCN(C)C)c1ccccc1 (centres undefined) | 0.439 |
| O=S(=O)(O)c1cc(I)c(O)c2ncccc12 | 0.197 |

(more compounds)

| SMILES | fraction of eclosed F1 progeny that are homozygous ATM8 |
| --- | --- |
| CN1[C@@H]2CC[C@H]1C[C@@H](OC(=O)C(CO)c1ccccc1)C2 (some centres undefined) | 0.0889 |
| COC(=O)C1=C(C)NC(C)=C(C(=O)OCCN(C)Cc2ccccc2)C1c1cccc([N+](=O)[O-])c1 (centres undefined) | 0.25 |
| CC(C)=CCc1c2c(c3occ(-c4ccc(O)cc4)c(=O)c3c1O)C=CC(C)(C)O2 | 0.093 |
| CN1CCN(c2c(F)cc3c(=O)c(C(=O)O)cn4c3c2SCC4)CC1 | 0.0833 |
| COC(=O)C1=C(C)NC(C)=C(C(=O)OCC(C)C)C1c1ccccc1[N+](=O)[O-] (centres undefined) | 0.0426 |
| O=c1cc(-c2ccc(O)cc2)oc2cc(O)ccc12 | 0.125 |
| O=C(O)c1cccnc1C(=O)O | 0.0323 |
| CC(=O)Nc1ccc(C(=O)O)cc1 | 0.135 |
| O=C(O)c1ccccc1 | 0.0488 |
| CC(C)(C)CC(=O)OCC(=O)[C@@]1(O)CC[C@H]2[C@@H]3CCC4=CC(=O)C=C[C@]4(C)[C@H]3[C@@H](O)C[C@@]21C | 0.087 |
| CN1CCC[C@@H]1CCO[C@](C)(c1ccccc1)c1ccc(Cl)cc1 | 0.119 |
| CCOc1ccc(NC(C)=O)cc1 | 0.12 |
| CC(=O)O[C@H]1CC[C@]2(C)[C@H]3C(=O)C=C4[C@@H]5C[C@@](C)(C(=O)O)CC[C@]5(C)CC[C@@]4(C)[C@]3(C)CC[C@H]2C1(C)C | 0.115 |
| COc1cc(OC)c(-c2c(OC)cc(OC)cc2OC)c(OC)c1 | 0.244 |
| C#C[C@]1(O)CC[C@H]2[C@@H]3CCC4=C(CCC(=O)C4)[C@H]3CC[C@@]21C | 0.143 |
| CCOC(=O)[N-]c1c[n+](N2CCOCC2)no1 | 0 |
| CC[N+](CC)(CC)CCOc1cccc(OCC[N+](CC)(CC)CC)c1OCC[N+](CC)(CC)CC | 0.0816 |
| COc1ccc2c(c1)O[C@@H]1COc3cc(OC)c(OC)cc3[C@@H]1C2=O | 0.0909 |
| CC(C)(C)NCC(O)c1cc(O)cc(O)c1 (centres undefined) | 0.139 |
| COC1=C(CC=C(C)C)C(=O)c2ccccc2C1=O | 0.171 |
| CNC(C)(C)Cc1ccccc1 | 0.315 |
| CCOP(=S)(OCC)Oc1cc(C)nc(C(C)C)n1 | 0.143 |
| CN[C@@H]1[C@H](O[C@H]2[C@H](O[C@H]3[C@H](O)[C@@H](O)[C@H](NC(=N)N)[C@@H](O)[C@@H]3NC(=N)N)O[C@@H](C)[C@]2(O)CO)O[C@@H](CO)[C@H](O)[C@H]1O | 0.087 |
| NCc1ccc(S(N)(=O)=O)cc1 | 0.279 |
| CCc1oc2ccccc2c1C(=O)c1cc(Br)c(O)c(Br)c1 | 0.25 |
| CC/C(=C(\c1ccccc1)c1ccc(OCCN(C)C)cc1)c1ccccc1 | 0.159 |

| SMILES | fraction of eclosed F1 progeny that are homozygous ATM8 |
| --- | --- |
| COc1cc2oc3cc(OC)c(OC)c(CC=C(C)C)c3c(=O)c2c(OC)c1CC=C(C)C | 0.243 |
| O=c1c(O)c(-c2ccc(O)c(O)c2)oc2cc(O)cc(O)c12 | 0.0938 |
| CC(=O)Nc1cccc(O)c1 | 0.2 |
| Cc1cnc(C(=O)O)c[n+]1[O-] | 0.087 |
| O=C(O)C1(C(=O)O)CCC1.[NH2-].[NH2-].[Pt+2] | 0.114 |
| CC1=C(C/C=C(\C)CCC[C@H](C)CCC[C@H](C)CCCC(C)C)C(=O)c2ccccc2C1=O | 0.0833 |
| Cc1ncc(COP(=O)([O-])[O-])c(CN(CCN(CC(=O)O)Cc2c(COP(=O)([O-])O)cnc(C)c2O)CC(=O)O)c1O.[Mn].[Na+].[Na+].[Na+] | 0.222 |
| CC1CCCC(C)N1 (centres undefined) | 0.0893 |
| CC(C)(C)NC[C@H](O)COc1ccccc1C1CCCC1 | 0.05 |
| COc1ccc(C(=O)c2ccccc2O)c(O)c1 | 0.0968 |
| COCCc1ccc(OCC(O)CNC(C)C)cc1 (centres undefined) | 0.0417 |
| Nc1nc2[nH]cc(CCc3ccc(C(=O)N[C@@H](CCC(=O)O)C(=O)O)cc3)c2c(=O)[nH]1 | 0.0909 |
| COc1cc2c(cc1C=O)OCO2 | 0.0938 |
| OCc1ccccn1 | 0.315 |
| COc1ccc(CN2CCN(C(c3ccc(F)cc3)c3ccc(F)cc3)CC2)c(OC)c1OC | 0.0571 |
| CC(C)Cc1ccc(C(C)C(=O)O)cc1 (centres undefined) | 0.149 |
| C[C@@]1(O)CCOC(=O)C1 | 0.235 |
| CN1CCN(c2cc3c(cc2F)c(=O)c(C(=O)O)cn3-c2ccc(F)cc2)CC1 | 0.0714 |
| O=C(O)CCCC[C@@H]1SC[C@@H]2NC(=O)N[C@@H]21 | 0.0822 |
| COc1ccc(C(CN(C)C)C2(O)CCCCC2)cc1 (centres undefined) | 0.113 |
| CC(=O)SCC(Cc1ccccc1)C(=O)NCC(=O)OCc1ccccc1 (centres undefined) | 0.0732 |
| C[C@H](CCC(=O)O)[C@H]1CC[C@H]2[C@@H]3CC[C@@H]4C[C@H](O)CC[C@]4(C)[C@H]3CC[C@]12C | 0.0741 |
| COC(=O)C1=C(C)NC(C)=C(C(=O)OC(C)C)C1c1cccc2nonc12 (centres undefined) | 0.0926 |
| CC1(C)CCC2=C(O1)c1ccccc1C(=O)C2=O [beta-LAPACHONE] | 0.389 |
| CC(=O)OCC[N+](C)(C)C | 0.0625 |
| O=C(O)c1nc2cc(Cl)c(Cl)cc2nc1O | 0 |
